For 3 substances, binding results are on record in PMC11490702.

Changes are numbered by the printed parent chain. These are yes or no findings as the source states them, for the method shown. Binding seen in cells or lysates may run through a third protein. For some of these results: Binding can be weak; no strength is given. For some of these results: Tags and fused reporters may be left off the sequences shown.

Experiment [1] addresses T1, Flag-OGT-S20A (UniProt O15294).
T1 sequence: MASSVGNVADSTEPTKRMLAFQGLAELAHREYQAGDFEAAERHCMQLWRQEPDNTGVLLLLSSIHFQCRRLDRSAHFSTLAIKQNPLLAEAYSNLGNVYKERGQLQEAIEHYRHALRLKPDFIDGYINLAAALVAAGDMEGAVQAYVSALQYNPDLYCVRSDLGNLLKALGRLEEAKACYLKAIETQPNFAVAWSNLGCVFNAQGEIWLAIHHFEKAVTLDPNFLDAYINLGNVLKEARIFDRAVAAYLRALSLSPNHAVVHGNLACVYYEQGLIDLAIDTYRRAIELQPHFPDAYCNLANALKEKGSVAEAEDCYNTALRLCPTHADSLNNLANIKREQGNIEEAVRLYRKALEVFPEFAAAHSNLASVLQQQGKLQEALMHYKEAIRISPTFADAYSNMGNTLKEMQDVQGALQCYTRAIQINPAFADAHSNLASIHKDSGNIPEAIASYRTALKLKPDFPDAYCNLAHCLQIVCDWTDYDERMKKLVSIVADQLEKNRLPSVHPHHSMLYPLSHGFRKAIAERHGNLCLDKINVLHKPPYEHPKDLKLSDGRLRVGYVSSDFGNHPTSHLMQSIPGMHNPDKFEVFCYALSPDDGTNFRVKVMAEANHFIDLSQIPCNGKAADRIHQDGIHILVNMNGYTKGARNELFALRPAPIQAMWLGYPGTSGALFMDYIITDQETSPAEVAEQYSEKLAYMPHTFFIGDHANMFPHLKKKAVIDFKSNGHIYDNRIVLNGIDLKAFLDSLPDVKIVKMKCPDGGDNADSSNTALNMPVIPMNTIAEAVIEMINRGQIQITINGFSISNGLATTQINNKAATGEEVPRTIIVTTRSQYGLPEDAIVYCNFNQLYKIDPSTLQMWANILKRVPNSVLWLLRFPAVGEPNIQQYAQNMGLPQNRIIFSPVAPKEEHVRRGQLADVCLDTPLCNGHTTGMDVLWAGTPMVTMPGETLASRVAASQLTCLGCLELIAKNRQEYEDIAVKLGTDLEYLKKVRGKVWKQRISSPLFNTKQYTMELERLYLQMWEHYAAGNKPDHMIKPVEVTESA
The experiment in a line: co-IP; cells co-transfected with Flag-OGT (WT or S20A) and HA-14-3-3 isoforms; immunoprecipitated with anti-Flag.

Experiment [2] has as its target T2, Flag-OGT-WT (UniProt O15294).
T2 sequence: T1 sequence with A20S
Described as above.

The target in experiment [3] is T3, endogenous OGT (human (endogenous in HeLa or HEK293T)) (UniProt O15294).
T3 sequence: T1 sequence with A20S
The experiment in a line: co-IP; endogenous OGT and endogenous 14-3-3 (pan-14-3-3 antibody).

The target in experiment [4] is T4, HA-OGT-S20A (UniProt O15294).
T4 sequence: T1 sequence
The experiment in a line: co-IP; cells transfected with HA-OGT (WT or S20A), with or without Flag-Chk1; immunoprecipitated with anti-HA, blotted with anti-pan 14-3-3.

Experiment [5] deals with T5, HA-OGT-WT (UniProt O15294).
T5 sequence: T1 sequence with A20S
The description is as above.

Experiment [6] addresses T2, Flag-OGT-WT. The experiment in a line: co-IP; cells transfected with Flag-OGT-WT or -S20A; endogenous 14-3-3ε detected with 14-3-3ε antibody.
For experiment [7], the target named is T3, endogenous OGT (human (endogenous in HeLa or HEK293T)). Put plainly: co-IP; endogenous OGT and endogenous 14-3-3ε (14-3-3ε antibody); cells with or without Nocodazole (M phase).

As for HA-14-3-3ε, the binding result was “no binding” in experiment [1] and “binds” in experiment [2].
For “endogenous 14-3-3 (detected with a pan-14-3-3 antibody) (human (endogenous in HeLa or HEK293T))”, the binding result in experiment [3], in experiment [4] and in experiment [5] was “binds” in each case.
Regarding “endogenous 14-3-3ε (human (endogenous in HeLa or HEK293T))”, the binding entry in experiment [6] and in experiment [7] was “binds” throughout.
